According to the supplement of paper PMC8728848:
Some of the results follow.

Experiments:
Test in all cases: glycan array binding signal (z-score within array); higher = stronger binding
Settings in all cases: glycan notation: IUPAC condensed, linker removed
[1] = biological target: GlcNAc(b1-4)GlcNAc(b1-4)GlcNAc(b1-4)GlcNAc(b1-4)GlcNAc(b1-4)GlcNAc
Method in brief: (§1)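 Negative Z-scores can be read as non-binding. The Z-score is calculated within each array and then averaged across arrays of one protein sequence at different concentrations or buffers and across linkers. Arrays, 3228 in all, were curated from the Consortium for Functional Glycomics database and kept only where the protein sequence was available.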

[2] = biological target: GlcNAc(b1-4)[GlcNAc(b1-6)]GalNAc
Method in brief: as §1

[3] = biological target: GlcNAc(b1-6)Gal(b1-4)GlcNAc
Method in brief: as §1

GlcNAc(b1-6)GalNAc = biological target: GlcNAc(b1-6)GalNAc
Method in brief: as §1

[4] = biological target: GlcNAc6S(b1-3)Gal(b1-4)GlcNAc
Method in brief: as §1

Kdn(a2-3)Gal(b1-3)GalNAc = biological target: Kdn(a2-3)Gal(b1-3)GalNAc
Method in brief: as §1

Kdn(a2-3)Gal(b1-3)GlcNAc = biological target: Kdn(a2-3)Gal(b1-3)GlcNAc
Method in brief: as §1

Kdn(a2-3)Gal(b1-4)Glc = biological target: Kdn(a2-3)Gal(b1-4)Glc
Method in brief: as §1

Kdn(a2-3)Gal(b1-4)GlcNAc = biological target: Kdn(a2-3)Gal(b1-4)GlcNAc
Method in brief: as §1

[5] = biological target: Kdn(a2-3)Gal(b1-4)[Fuc(a1-3)]GlcNAc
Method in brief: as §1

Kdn(a2-6)Gal(b1-4)GlcNAc = biological target: Kdn(a2-6)Gal(b1-4)GlcNAc
Method in brief: as §1

[6] = biological target: Man(a1-2)Man(a1-2)Man(a1-3)Man
Method in brief: as §1

[7] = biological target: Man(a1-2)Man(a1-2)Man(a1-6)[Man(a1-3)]Man
Method in brief: as §1

Man(a1-2)Man(a1-3)Man = biological target: Man(a1-2)Man(a1-3)Man
Method in brief: as §1

[8] = biological target: Man(a1-2)Man(a1-3)[Man(a1-2)Man(a1-6)]Man
Method in brief: as §1

[9] = biological target: Man(a1-2)Man(a1-3)[Man(a1-2)Man(a1-6)]Man(a1-6)[Man(a1-2)Man(a1-2)Man(a1-3)]Man
Method in brief: as §1

[10] = biological target: Man(a1-2)Man(a1-3)[Man(a1-2)Man(a1-6)]Man(a1-6)[Man(a1-2)Man(a1-2)Man(a1-3)]Man(b1-4)GlcNAc(b1-4)GlcNAc
Method in brief: as §1

[11] = biological target: Man(a1-2)Man(a1-3)[Man(a1-6)]Man(a1-6)[Man(a1-2)Man(a1-3)]Man(b1-4)GlcNAc(b1-4)GlcNAc
Method in brief: as §1

[12] = biological target: Man(a1-2)Man(a1-6)[Man(a1-3)]Man(a1-6)[Man(a1-2)Man(a1-2)Man(a1-3)]Man
Method in brief: as §1

[13] = biological target: Man(a1-2)Man(a1-6)[Man(a1-3)]Man(a1-6)[Man(a1-2)Man(a1-2)Man(a1-3)]Man(b1-4)GlcNAc(b1-4)GlcNAc
Method in brief: as §1

Man(a1-3)[Man(a1-6)]Man = biological target: Man(a1-3)[Man(a1-6)]Man
Method in brief: as §1

[14] = biological target: Man(a1-3)[Man(a1-6)]Man(a1-6)[Man(a1-2)Man(a1-3)]Man(b1-4)GlcNAc(b1-4)GlcNAc
Method in brief: as §1

[15] = biological target: Man(a1-3)[Man(a1-6)]Man(a1-6)[Man(a1-3)]Man
Method in brief: as §1

[16] = biological target: Man(a1-3)[Man(a1-6)]Man(a1-6)[Man(a1-3)]Man(b1-4)GlcNAc(b1-4)GlcNAc
Method in brief: as §1

[17] = biological target: Man(a1-3)[Man(a1-6)]Man(b1-4)GlcNAc(b1-4)GlcNAc
Method in brief: as §1

[18] = biological target: Man(a1-3)[Man(a1-6)]Man(b1-4)GlcNAc(b1-4)[Fuc(a1-6)]GlcNAc
Method in brief: as §1

Man(a1-6)Man = biological target: Man(a1-6)Man
Method in brief: as §1

Man(b1-4)GlcNAc = biological target: Man(b1-4)GlcNAc
Method in brief: as §1

MurNAc(b1-4)GlcNAc = biological target: MurNAc(b1-4)GlcNAc
Method in brief: as §1

Neu5Ac(a2-3)Gal = biological target: Neu5Ac(a2-3)Gal
Method in brief: as §1

[19] = biological target: Neu5Ac(a2-3)Gal(b1-3)GalNAc
Method in brief: as §1

[20] = biological target: Neu5Ac(a2-3)Gal(b1-3)GalNAc(b1-3)Gal(a1-4)Gal(b1-4)Glc
Method in brief: as §1

[21] = biological target: Neu5Ac(a2-3)Gal(b1-3)GalNAc(b1-4)Gal(b1-4)Glc
Method in brief: as §1

[22] = biological target: Neu5Ac(a2-3)Gal(b1-3)GalNAc(b1-4)[Neu5Ac(a2-3)]Gal(b1-4)Glc
Method in brief: as §1

[23] = biological target: Neu5Ac(a2-3)Gal(b1-3)GalNAc(b1-4)[Neu5Ac(a2-8)Neu5Ac(a2-3)]Gal(b1-4)Glc
Method in brief: as §1

[24] = biological target: Neu5Ac(a2-3)Gal(b1-3)GalNAc6S
Method in brief: as §1

[25] = biological target: Neu5Ac(a2-3)Gal(b1-3)GlcNAc
Method in brief: as §1

[26] = biological target: Neu5Ac(a2-3)Gal(b1-3)GlcNAc(b1-2)Man
Method in brief: as §1

[27] = biological target: Neu5Ac(a2-3)Gal(b1-3)GlcNAc(b1-2)Man(a1-3)[GlcNAc(b1-4)][Neu5Ac(a2-3)Gal(b1-3)GlcNAc(b1-2)Man(a1-6)]Man(b1-4)GlcNAc(b1-4)GlcNAc
Method in brief: as §1

[28] = biological target: Neu5Ac(a2-3)Gal(b1-3)GlcNAc(b1-2)Man(a1-3)[Neu5Ac(a2-3)Gal(b1-3)GlcNAc(b1-2)Man(a1-6)]Man(b1-4)GlcNAc(b1-4)GlcNAc
Method in brief: as §1

[29] = biological target: Neu5Ac(a2-3)Gal(b1-3)GlcNAc(b1-2)[Neu5Ac(a2-3)Gal(b1-3)GlcNAc(b1-4)]Man(a1-6)[Neu5Ac(a2-3)Gal(b1-3)GlcNAc(b1-2)Man(a1-3)]Man(b1-4)GlcNAc(b1-4)GlcNAc
Method in brief: as §1

[30] = biological target: Neu5Ac(a2-3)Gal(b1-3)GlcNAc(b1-3)Gal(b1-3)GlcNAc
Method in brief: as §1

[31] = biological target: Neu5Ac(a2-3)Gal(b1-3)GlcNAc(b1-3)Gal(b1-4)GlcNAc
Method in brief: as §1

[32] = biological target: Neu5Ac(a2-3)Gal(b1-3)GlcNAc(b1-3)GalNAc
Method in brief: as §1

[33] = biological target: Neu5Ac(a2-3)Gal(b1-3)GlcNAc(b1-6)GalNAc
Method in brief: as §1

B1: Awp3 (Candida glabrata), B4UN32 (protein)
chain: MISFVTLLAILGLLSISWADQTVRSVAGDQRVTDPVIVGDNSILDYYGGSNYDFSNNFEIGRGTLYIGKESYFSSFQSAPTDVPNSFHLLIKNTNNLQNNGQFIIENIKRHANQCSNSSIQVFPINFQNDGEFEIISGGVEGRCCLPTSVIAPQNFLNNGKFYYKVLTDTGSIYSGSCMQNVDIGASTTTTVNNNLWEFTGSINAQINGAVSGAAQINLDGSNMFVNANTFSGQVVNLINGGSFLQTSDPLSNIVVINGLGTSDTGVTSIAVKGKGKSFTYNPSSGIVKLTTVEGKTYAYQIGCGYNTKKFITNNDSGASYESADNFFVLTYSEPYSPQTCQLENSSIFSSNFISTSTSSSSSSSSASSLPSSMSSSLPSSLSSSLSSSLSSSMSSSMSSLFIIPPPYTTTRSSGSSIIDTEIVSFYSTTDSPGHTITGTTTTTLYGPHTHSSVSTPSSSSESSTTSNSSIESSSLPHTSVSSTPESSITPSSNTISSSPTSDFSSVQSSSIMESSSVVASSSVINSSSIVDSSSSSASSLPSSMSSSLSSSMSSSLPSSMSSSLSSSLSSSLSSSMSSSMSSLFIIPPPYTTTRSSGSSIIDTEIVSFYSTTDSPGHTITGTTTTTLYGPHTHSSVSTPSSSSESSTTSNSSIESSSLPHTSVSSTPESSITPSSNTISSSPTSDFSSVQSSSIMESSSVVASSSVINSSSIVDSSSSSASSLPSSMPSSLPSSMSSSLSSSMSSSLSSSLSSSLSSSMSSSMSSLFIIPPPYTTTRSSGSSIIDTEIVSFYSTTDSPGHTITGTTTTTLYGPHTHSSVSTPSSSSESSTTSNSSIESSSLPHTSVSSTPESSITPSSNTISSSPTSDFSSVQSSSIMESSSVVASSSATQSSSVINSSSIVDSSSSSASSLPSSMPSSLPSSLSSSLSSSLSSSMSSSMSSLFIIPPPYTTTRSSGSSIIDTEIVSFYSTTDSPGHTITGTTTTTLYESSIYSSSSSTIQESELSNTSRTTMTSNSSVSISSTSSRSSFSNTKSSTIVISQSASLPDSKTDIILSTSSNIGYSSRSLLSDLGTSISDSDIHHSVLHSTESYSSNESGTNPFTSIASLSNFIPESSSHTSTALGSENSVISSDILTTMSHPVATNSGDKPTTPKRSEQVSTTMTSSGPTPDTSSFDTDGMSAYSRPEFTTNSLEVNKSSTSQLGNNKQTFSNLQLESTRPHSENEVDNNTRLLQSIQQSSTYGTNNVNPLSPTGSISIPLTEDGQGDNNNWNSPATNDLCTQISFNLTATTITVTDRITITDSIHDISSEVITSYIYQTIVDQKTVTQTVDGKSLANKMSSIPKPSSRSLIQPQPPVAIELQEGAASTSRVSLVSLFISIILVLL
glycan array binding signal (z-score) [1]: -0.143
glycan array binding signal (z-score) [2]: -0.65
glycan array binding signal (z-score) [3]: 1.14
glycan array binding signal (z-score) (GlcNAc(b1-6)GalNAc): -0.171
glycan array binding signal (z-score) [4]: 0.783
glycan array binding signal (z-score) (Kdn(a2-3)Gal(b1-3)GalNAc): 0.344
glycan array binding signal (z-score) (Kdn(a2-3)Gal(b1-3)GlcNAc): -0.574
glycan array binding signal (z-score) (Kdn(a2-3)Gal(b1-4)Glc): 0.004
glycan array binding signal (z-score) (Kdn(a2-3)Gal(b1-4)GlcNAc): -0.204
glycan array binding signal (z-score) [5]: 1.25
glycan array binding signal (z-score) (Kdn(a2-6)Gal(b1-4)GlcNAc): -0.476
glycan array binding signal (z-score) [6]: -0.108
glycan array binding signal (z-score) [7]: -0.552
glycan array binding signal (z-score) (Man(a1-2)Man(a1-3)Man): 0.292
glycan array binding signal (z-score) [8]: -0.27
glycan array binding signal (z-score) [9]: -0.686
glycan array binding signal (z-score) [10]: -0.236
glycan array binding signal (z-score) [11]: 0.584
glycan array binding signal (z-score) [12]: -0.994
glycan array binding signal (z-score) [13]: 0.117
glycan array binding signal (z-score) (Man(a1-3)[Man(a1-6)]Man): 0.869
glycan array binding signal (z-score) [14]: 0.272
glycan array binding signal (z-score) [15]: -0.802
glycan array binding signal (z-score) [16]: -1.04
glycan array binding signal (z-score) [17]: -0.824
glycan array binding signal (z-score) [18]: 0.048
glycan array binding signal (z-score) (Man(a1-6)Man): 0.889
glycan array binding signal (z-score) (Man(b1-4)GlcNAc): 0.34
glycan array binding signal (z-score) (MurNAc(b1-4)GlcNAc): -0.501
glycan array binding signal (z-score) (Neu5Ac(a2-3)Gal): -1.36
glycan array binding signal (z-score) [19]: -0.008
glycan array binding signal (z-score) [20]: -0.882
glycan array binding signal (z-score) [21]: 0.473
glycan array binding signal (z-score) [22]: -0.398
glycan array binding signal (z-score) [23]: -0.714
glycan array binding signal (z-score) [24]: -0.569
glycan array binding signal (z-score) [25]: 0.353
glycan array binding signal (z-score) [26]: 0.208
glycan array binding signal (z-score) [27]: 0.337
glycan array binding signal (z-score) [28]: 0.813
glycan array binding signal (z-score) [29]: 0.194
glycan array binding signal (z-score) [30]: -2.3
glycan array binding signal (z-score) [31]: 0.37
glycan array binding signal (z-score) [32]: 0.123
glycan array binding signal (z-score) [33]: -0.639
